Results reported in the supplement of paper PMC7666118.
Some of the results follow.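 The calls were made as follows: active = dose-dependent thermal stabilisation significant by F-test of dose-response against flat model at 10% FDR; inactive = not significant.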

Sequences of proteins named here, by UniProt entry; tags and fusion partners are left off. A change or cut given only in a name is not applied to a line headed by its entry.
UniProt Q96J02: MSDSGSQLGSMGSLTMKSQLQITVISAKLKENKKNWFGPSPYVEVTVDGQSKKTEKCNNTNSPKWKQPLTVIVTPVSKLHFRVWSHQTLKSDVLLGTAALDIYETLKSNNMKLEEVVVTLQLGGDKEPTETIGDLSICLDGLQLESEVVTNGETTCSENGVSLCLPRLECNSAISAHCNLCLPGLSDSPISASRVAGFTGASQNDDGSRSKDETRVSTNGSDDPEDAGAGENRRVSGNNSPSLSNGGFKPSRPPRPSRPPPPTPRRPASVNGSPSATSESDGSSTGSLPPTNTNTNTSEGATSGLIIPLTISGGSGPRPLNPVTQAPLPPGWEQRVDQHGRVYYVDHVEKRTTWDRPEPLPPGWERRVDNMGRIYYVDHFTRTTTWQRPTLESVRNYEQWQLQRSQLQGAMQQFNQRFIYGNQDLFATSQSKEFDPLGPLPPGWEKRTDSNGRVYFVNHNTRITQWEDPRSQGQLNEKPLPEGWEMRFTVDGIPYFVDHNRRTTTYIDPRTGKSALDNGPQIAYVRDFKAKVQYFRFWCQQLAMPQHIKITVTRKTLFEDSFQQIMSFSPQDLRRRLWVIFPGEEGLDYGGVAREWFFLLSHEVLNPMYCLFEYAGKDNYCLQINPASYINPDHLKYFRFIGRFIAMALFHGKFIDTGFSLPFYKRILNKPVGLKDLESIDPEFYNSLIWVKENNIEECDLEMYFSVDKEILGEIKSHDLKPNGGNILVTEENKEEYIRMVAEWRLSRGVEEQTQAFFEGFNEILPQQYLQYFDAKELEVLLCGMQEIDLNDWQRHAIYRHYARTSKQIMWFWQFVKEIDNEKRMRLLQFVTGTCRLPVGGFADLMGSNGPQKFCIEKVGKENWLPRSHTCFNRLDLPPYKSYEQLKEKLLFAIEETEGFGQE
UniProt O14686, whole entry: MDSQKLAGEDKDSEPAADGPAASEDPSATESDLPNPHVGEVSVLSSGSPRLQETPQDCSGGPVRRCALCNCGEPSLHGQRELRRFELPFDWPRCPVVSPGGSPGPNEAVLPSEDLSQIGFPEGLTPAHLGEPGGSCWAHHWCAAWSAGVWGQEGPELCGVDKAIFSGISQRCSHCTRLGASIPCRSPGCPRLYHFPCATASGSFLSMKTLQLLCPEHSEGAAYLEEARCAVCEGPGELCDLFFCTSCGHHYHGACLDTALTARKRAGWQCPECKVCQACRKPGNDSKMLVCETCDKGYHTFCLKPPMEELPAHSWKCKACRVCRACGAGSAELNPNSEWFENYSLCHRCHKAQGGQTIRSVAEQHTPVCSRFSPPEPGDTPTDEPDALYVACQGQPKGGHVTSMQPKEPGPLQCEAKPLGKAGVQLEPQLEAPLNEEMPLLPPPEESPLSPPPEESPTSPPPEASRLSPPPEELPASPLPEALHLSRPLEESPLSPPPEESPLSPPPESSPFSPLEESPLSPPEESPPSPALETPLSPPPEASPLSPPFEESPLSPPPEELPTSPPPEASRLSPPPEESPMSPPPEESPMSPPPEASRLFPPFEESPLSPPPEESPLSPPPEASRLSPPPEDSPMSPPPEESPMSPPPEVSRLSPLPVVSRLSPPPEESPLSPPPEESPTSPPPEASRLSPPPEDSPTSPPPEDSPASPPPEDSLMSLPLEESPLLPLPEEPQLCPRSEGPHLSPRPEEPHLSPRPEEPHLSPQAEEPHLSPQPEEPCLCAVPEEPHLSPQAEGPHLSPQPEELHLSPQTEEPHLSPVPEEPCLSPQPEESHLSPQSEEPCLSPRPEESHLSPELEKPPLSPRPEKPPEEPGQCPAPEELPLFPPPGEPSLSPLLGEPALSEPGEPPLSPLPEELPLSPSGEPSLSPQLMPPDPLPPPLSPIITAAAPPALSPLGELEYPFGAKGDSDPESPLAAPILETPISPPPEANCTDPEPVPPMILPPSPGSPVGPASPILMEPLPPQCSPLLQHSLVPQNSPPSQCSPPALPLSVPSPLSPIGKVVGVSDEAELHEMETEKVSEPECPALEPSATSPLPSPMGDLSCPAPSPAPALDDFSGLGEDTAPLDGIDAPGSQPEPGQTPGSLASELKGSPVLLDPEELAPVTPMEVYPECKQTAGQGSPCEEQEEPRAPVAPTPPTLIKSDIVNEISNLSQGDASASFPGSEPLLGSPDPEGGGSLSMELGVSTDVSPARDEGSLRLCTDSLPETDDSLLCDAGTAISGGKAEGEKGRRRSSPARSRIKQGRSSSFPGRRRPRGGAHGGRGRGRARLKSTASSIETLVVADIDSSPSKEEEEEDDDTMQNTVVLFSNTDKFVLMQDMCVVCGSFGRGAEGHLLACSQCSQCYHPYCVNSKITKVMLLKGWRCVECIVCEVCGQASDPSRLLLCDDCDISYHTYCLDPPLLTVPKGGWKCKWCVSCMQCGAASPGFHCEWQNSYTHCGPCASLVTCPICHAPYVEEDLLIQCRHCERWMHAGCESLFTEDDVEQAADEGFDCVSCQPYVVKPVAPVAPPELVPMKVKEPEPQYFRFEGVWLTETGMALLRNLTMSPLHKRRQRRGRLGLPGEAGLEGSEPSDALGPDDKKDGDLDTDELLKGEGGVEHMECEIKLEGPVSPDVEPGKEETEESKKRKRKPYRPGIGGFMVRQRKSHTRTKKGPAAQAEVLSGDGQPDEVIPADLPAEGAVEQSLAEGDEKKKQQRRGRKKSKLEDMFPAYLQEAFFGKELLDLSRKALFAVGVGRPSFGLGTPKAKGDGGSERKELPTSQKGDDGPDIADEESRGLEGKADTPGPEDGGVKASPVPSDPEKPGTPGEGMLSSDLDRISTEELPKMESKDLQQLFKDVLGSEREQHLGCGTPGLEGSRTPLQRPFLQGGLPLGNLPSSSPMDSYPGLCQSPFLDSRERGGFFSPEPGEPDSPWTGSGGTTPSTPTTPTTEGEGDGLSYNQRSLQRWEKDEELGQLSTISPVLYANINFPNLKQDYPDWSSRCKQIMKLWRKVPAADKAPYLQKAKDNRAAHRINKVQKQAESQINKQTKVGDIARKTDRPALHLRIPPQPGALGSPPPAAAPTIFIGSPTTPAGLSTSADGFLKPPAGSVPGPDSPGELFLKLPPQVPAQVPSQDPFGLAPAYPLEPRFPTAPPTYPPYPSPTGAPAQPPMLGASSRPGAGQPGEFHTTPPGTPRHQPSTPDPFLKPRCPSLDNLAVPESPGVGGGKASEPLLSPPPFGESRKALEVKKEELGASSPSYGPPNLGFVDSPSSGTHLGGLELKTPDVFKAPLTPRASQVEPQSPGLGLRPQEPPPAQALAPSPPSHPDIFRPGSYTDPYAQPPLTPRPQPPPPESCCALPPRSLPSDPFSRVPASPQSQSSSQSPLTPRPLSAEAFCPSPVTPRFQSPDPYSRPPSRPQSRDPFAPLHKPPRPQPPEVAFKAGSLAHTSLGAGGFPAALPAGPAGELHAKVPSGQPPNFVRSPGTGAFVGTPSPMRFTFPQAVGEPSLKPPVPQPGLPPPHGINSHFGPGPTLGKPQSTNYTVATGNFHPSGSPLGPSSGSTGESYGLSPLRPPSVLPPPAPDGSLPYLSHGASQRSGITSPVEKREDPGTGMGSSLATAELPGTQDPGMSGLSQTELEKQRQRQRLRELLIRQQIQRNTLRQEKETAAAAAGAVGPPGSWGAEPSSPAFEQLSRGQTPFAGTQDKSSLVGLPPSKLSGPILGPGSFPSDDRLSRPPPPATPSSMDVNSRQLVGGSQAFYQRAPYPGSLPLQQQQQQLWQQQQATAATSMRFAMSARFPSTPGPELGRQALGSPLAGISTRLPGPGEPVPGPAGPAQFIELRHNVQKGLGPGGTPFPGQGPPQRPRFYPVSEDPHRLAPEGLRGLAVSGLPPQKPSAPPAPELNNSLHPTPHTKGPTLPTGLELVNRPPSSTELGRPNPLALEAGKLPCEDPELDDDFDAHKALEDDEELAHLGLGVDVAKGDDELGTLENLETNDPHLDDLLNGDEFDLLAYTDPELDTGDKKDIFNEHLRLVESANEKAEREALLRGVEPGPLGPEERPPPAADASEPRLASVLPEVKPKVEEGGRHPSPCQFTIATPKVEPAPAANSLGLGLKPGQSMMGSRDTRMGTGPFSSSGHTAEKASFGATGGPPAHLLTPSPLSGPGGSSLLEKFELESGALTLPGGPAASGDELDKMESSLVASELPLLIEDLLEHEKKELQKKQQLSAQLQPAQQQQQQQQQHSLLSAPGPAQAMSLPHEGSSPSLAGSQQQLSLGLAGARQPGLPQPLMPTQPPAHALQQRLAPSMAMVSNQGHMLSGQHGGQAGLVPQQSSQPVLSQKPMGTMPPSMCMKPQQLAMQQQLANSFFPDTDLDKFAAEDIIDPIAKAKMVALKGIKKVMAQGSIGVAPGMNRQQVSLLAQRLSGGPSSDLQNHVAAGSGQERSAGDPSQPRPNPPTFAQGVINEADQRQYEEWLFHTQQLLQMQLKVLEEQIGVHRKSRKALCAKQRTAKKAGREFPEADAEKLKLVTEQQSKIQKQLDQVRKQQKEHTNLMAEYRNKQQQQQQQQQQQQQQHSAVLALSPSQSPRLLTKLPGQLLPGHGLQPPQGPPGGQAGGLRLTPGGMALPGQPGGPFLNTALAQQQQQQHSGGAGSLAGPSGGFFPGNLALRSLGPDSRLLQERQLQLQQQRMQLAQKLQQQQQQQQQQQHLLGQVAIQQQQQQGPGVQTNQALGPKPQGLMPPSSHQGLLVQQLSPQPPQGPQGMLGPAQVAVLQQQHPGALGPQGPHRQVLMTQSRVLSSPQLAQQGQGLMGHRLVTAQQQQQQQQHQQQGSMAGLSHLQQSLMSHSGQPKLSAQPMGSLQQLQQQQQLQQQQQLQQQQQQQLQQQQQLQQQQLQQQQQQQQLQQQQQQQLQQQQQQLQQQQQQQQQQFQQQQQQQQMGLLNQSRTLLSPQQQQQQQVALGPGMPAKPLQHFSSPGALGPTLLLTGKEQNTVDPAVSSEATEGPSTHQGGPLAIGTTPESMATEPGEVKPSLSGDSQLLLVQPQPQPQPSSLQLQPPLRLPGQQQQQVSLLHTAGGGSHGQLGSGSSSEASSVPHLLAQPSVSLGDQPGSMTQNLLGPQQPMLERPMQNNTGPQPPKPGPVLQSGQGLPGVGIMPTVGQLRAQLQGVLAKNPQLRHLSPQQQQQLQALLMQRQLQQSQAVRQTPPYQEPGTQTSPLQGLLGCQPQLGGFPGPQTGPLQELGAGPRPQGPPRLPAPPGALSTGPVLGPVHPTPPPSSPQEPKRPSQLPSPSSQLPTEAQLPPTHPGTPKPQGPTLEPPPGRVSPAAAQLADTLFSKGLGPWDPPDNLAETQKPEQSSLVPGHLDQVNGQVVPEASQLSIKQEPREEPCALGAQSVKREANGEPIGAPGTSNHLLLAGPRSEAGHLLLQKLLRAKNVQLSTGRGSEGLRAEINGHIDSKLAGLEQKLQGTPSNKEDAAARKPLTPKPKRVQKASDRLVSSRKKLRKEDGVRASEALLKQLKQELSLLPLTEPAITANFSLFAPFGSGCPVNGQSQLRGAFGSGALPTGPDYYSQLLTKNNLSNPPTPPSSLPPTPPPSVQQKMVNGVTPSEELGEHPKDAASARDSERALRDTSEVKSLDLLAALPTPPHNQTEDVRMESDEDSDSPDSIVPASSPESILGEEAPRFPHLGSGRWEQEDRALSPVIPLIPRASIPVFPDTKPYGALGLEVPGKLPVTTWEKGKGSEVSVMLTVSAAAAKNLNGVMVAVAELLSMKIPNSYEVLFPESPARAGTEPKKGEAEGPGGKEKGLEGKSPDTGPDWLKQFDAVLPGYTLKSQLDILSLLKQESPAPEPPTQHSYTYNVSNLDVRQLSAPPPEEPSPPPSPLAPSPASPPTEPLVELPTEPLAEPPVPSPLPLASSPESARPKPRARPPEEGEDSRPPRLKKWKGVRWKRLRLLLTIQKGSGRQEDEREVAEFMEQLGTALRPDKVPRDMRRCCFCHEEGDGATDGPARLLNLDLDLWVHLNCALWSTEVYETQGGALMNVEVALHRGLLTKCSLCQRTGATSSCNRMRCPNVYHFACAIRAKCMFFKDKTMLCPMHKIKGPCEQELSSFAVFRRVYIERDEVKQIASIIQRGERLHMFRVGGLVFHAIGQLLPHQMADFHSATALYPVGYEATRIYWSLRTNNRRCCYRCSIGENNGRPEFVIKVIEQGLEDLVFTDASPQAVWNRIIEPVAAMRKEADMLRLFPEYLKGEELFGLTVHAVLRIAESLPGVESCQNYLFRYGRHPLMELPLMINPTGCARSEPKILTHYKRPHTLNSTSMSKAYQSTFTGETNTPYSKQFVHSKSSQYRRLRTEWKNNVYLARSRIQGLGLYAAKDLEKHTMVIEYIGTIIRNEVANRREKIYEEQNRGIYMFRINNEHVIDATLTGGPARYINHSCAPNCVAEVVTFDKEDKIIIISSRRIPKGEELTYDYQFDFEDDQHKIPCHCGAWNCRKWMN

These targets were tested with Nc1nc2c(ncn2[C@@H]2O[C@H](COP(=O)(O)OP(=O)(O)OP(=O)(O)O)[C@@H](O)[C@H]2O)c(=O)[nH]1 (assay: dose-dependent thermal stabilisation call (2D-TPP, DLPTP, 10% FDR) (binary (1 = stabilised)); higher = stabilised by the compound). Settings: system: Jurkat gel-filtered lysate; concentration range 1-500 µM.
IMPA1 (UniProt P29218) was tested, and the “dose-dependent thermal stabilisation call” value was inactive: 0. For KPNA4 (UniProt O00629), the “dose-dependent thermal stabilisation call” value was inactive: 0. For LAP3 (UniProt P28838), the “dose-dependent thermal stabilisation call” value was inactive: 0. With LIMK2 (UniProt P53671) the “dose-dependent thermal stabilisation call” value was active: 1. KIF2C (UniProt Q99661) was tested, and the “dose-dependent thermal stabilisation call” value was active: 1. For JUNB (UniProt P17275), the “dose-dependent thermal stabilisation call” value was inactive: 0. IRF2BPL (UniProt Q9H1B7) was tested, and the “dose-dependent thermal stabilisation call” value was inactive: 0. With KIAA0930 (UniProt Q6ICG6) the “dose-dependent thermal stabilisation call” value was inactive: 0. KCTD12 (UniProt Q96CX2) was tested, and the “dose-dependent thermal stabilisation call” value was inactive: 0. For HNRNPM (UniProt P52272), the “dose-dependent thermal stabilisation call” value was inactive: 0. For KDM3A (UniProt Q9Y4C1), the “dose-dependent thermal stabilisation call” value was active: 1. In the case of INTS10 (UniProt Q9NVR2), the “dose-dependent thermal stabilisation call” value is reported as active: 1. With IFI35 (UniProt P80217) the “dose-dependent thermal stabilisation call” value was inactive: 0. With KPNA1 (UniProt P52294) the “dose-dependent thermal stabilisation call” value was active: 1. For IQGAP1 (UniProt P46940), the “dose-dependent thermal stabilisation call” value was inactive: 0. HOMER2 (UniProt Q9NSB8) was tested, and the “dose-dependent thermal stabilisation call” value was inactive: 0. For IFT27 (UniProt Q9BW83), the “dose-dependent thermal stabilisation call” value was active: 1. IRF3 (UniProt Q14653) was tested, and the “dose-dependent thermal stabilisation call” value was inactive: 0. With INPP4A (UniProt Q96PE3) the “dose-dependent thermal stabilisation call” value was inactive: 0. For KLF12 (UniProt Q9Y4X4), the “dose-dependent thermal stabilisation call” value was inactive: 0. In the case of IFT43 (UniProt Q96FT9), the “dose-dependent thermal stabilisation call” value is reported as inactive: 0. KCTD5 (UniProt Q9NXV2) was tested, and the “dose-dependent thermal stabilisation call” value was inactive: 0. In the case of KLHL42 (UniProt Q9P2K6), the “dose-dependent thermal stabilisation call” value is reported as inactive: 0. With KIAA1524 (UniProt Q8TCG1) the “dose-dependent thermal stabilisation call” value was inactive: 0. For LONP1 (UniProt P36776), the “dose-dependent thermal stabilisation call” value was inactive: 0. With LEF1 (UniProt Q9UJU2) the “dose-dependent thermal stabilisation call” value was active: 1. ITCH (UniProt Q96J02) was tested, and the “dose-dependent thermal stabilisation call” value was inactive: 0. For KLHL11 (UniProt Q9NVR0), the “dose-dependent thermal stabilisation call” value was inactive: 0. In the case of ING4 (UniProt Q9UNL4), the “dose-dependent thermal stabilisation call” value is reported as inactive: 0. In the case of KXD1 (UniProt Q9BQD3), the “dose-dependent thermal stabilisation call” value is reported as inactive: 0. HOMER3 (UniProt Q9NSC5) was tested, and the “dose-dependent thermal stabilisation call” value was inactive: 0. For ISOC1 (UniProt Q96CN7), the “dose-dependent thermal stabilisation call” value was inactive: 0. KDM8 (UniProt Q8N371) was tested, and the “dose-dependent thermal stabilisation call” value was inactive: 0. In the case of KYAT3 (UniProt Q6YP21), the “dose-dependent thermal stabilisation call” value is reported as inactive: 0. For KDM3B (UniProt Q7LBC6), the “dose-dependent thermal stabilisation call” value was inactive: 0. For KMT2D (UniProt O14686), the “dose-dependent thermal stabilisation call” value was inactive: 0.
